Measured values: patent US8859237B2, “Diguanylate cyclase method of producing the same and its use in the manufacture of cyclic-di-GMP and analogues thereof” (priority 2009, dated 2014)
The name of at least one read-out is uncertain.

Experiment: Thermostability analysis of the enzyme (residual GTP turnover after incubation)
Assay type: physicochemical, Thermotoga maritima
Settings: 45° C., FIG. 5

B1: R158A: tDGC diguanylate cyclase domain with I-site arginine 158 replaced by alanine (protein, listed as Thermotoga maritima)
chain: MGSSHHHHHHSSGLVPRGSHMKELEYMAYHDPLTGLPNRRYFFELGNRYLDLAKREGKKVFVLFVDLAGFKAINDTYGHLSGDEVLKTVSKRILDRVARSDVVARYGGDEFTILLYDMKEEYLKSLLERILSTFREPVRVENKHLSVTPNIGVARFPEDGENLEELLKVADMRMYKAKEMKVPYFSLS
modifications: DOMAIN (24)..(181) example of GGDEF domain
notes: tDGC diguanylate cyclase domain with I-site arginine 158 replaced by alanine
- half-lifetime of enzyme activity: more than 25 hours
